Measurements taken from PubChem BioAssay AID1347076 (National Center for Advancing Translational Sciences (NCATS), 2019).
Hit rate of the full screen: of about 400,000 compounds, about 13,000 (3.2%) were called active. Inconclusive means that the source gave no clear call. Such entries were picked first, then a sample of the others. The call rests on the fitted dose curve; in most records, active means well fitted cell-killing curve with a large enough effect; inconclusive means small, poorly fitted or top-dose-only effect, or effect the other way; inactive means flat fitted curve, though single readings scatter. A potency beside an inconclusive call is a rough fit, not a confirmed value.
Potency means the concentration at half of the fitted maximal effect.

Assay: qHTS assay for MDR1-selective chemotherapeutics: Primary screen using the drug-selected MDR subline cells KB-V1; further: nearly all actives have a fitted effect of over 60% in size
Conditions: KB-V1 MDR cells viability, CellTiter-Glo, 72 h; series mostly up to 46.1 µM
Procedure, shortened: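 Cytotoxicity toward P-gp-expressing KB-V1 cells was determined as loss of CellTiter-Glo luminescence after 72 h at 37 degrees C. Compounds were tested in quantitative HTS format across a concentration range, with curves fitted to normalized data.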
In the case of `O=C1CC(c2nc3ccccc3[nH]2)CN1c1ccccc1` (stereo not given), the Potency is reported as inconclusive: 29.1 µM [cytotoxic, single point].
In the case of `COc1ccc(C(=O)NC2CCCc3c2cnn3-c2cccc(C)c2C)o1` (stereo not given), the Potency is reported as inconclusive: 18.4 µM [cytotoxic, single point].
For `NC(=O)c1cnn2c(C(F)(F)F)cc(-c3ccc(F)cc3)nc12`, the Potency was active: 13 µM.
In the case of `O=C(CC1SC(=Nc2cccc3ccccc23)N(Cc2ccccn2)C1=O)Nc1ccccc1Br` (stereo not given), the Potency is reported as active: 16.4 µM.
For `COc1ccc(C(=O)/C=C/C(=O)N(CC(=O)NC2CCCCC2)Cc2ccc(F)cc2)c(O)c1`, the Potency was active: 16.4 µM.
For `CCN1CCN(C(=S)NC(=O)c2cccs2)CC1`, the Potency was “inactive”.
In the case of `CCOCC(=O)Nc1ccc(S(=O)(=O)NCCc2ccccc2)cc1`, the Potency is reported as inconclusive: 16.4 µM [cytotoxic, partial curve, poor fit].
For `CCOc1ccc(CCNC(=O)CN(C)S(=O)(=O)c2cccs2)cc1OCC`, the Potency was active: 4.61 µM.
With `O=C(COC(=O)/C=C/c1ccco1)Nc1ccc(F)cc1Cl` the Potency was inconclusive: 14.6 µM [rising, partial curve, poor fit].
With `COc1ccccc1CNC(=O)c1cc2cc3ccc(Cl)cc3nc2o1` the Potency was inconclusive: 16.4 µM [rising, single point].
With `c1csc(-c2nc(N3CCOCC3)c3ccccc3n2)c1` the Potency was inconclusive: 8.2 µM [cytotoxic, partial curve].
In the case of `COCCCN(C(=O)c1ccco1)c1nc(-c2ccc(OC)cc2)cs1`, the Potency is reported as inconclusive: 20.6 µM [cytotoxic, single point].
For `CCc1ccccc1N1CC(c2nc3ccccc3n2CCCOc2ccc(Cl)cc2)CC1=O` (stereo not given), the Potency was “inactive”.
With `O=C(Nc1ccc(Cl)c(C(F)(F)F)c1)[C@@H]1CC=C[C@@H]2CCN(Cc3ccccc3)C(=O)[C@@H]21` the Potency was inconclusive: 16.4 µM [cytotoxic, partial curve].
With `O=C(Nc1ccc([N+](=O)[O-])cc1)NN1CCCCCC1` the Potency was inconclusive: 29.1 µM [cytotoxic, single point].
In the case of `Clc1ccc(Nc2nc(C3CC3)cs2)cc1`, the Potency is reported as inconclusive: 10.3 µM [rising, partial curve, poor fit].
With `Cc1ccc(NC(=O)C(=O)NCc2ccc(/C=C(/C#N)C(=O)NCc3cccnc3)o2)cc1` the Potency was inconclusive: 16.4 µM [cytotoxic, partial curve, poor fit].
For `COc1ccc(C2CC(c3ccc(Br)cc3)=NN2C(=O)CSC2=NCCS2)cc1` (stereo not given), the Potency was inconclusive: 23.1 µM [cytotoxic, partial curve, poor fit].
For `Cc1cc(Cl)ccc1OCC(=O)N1CCN(c2ncccn2)CC1`, the Potency was inconclusive: 16.4 µM [cytotoxic, partial curve].
For `Cc1c(CNC2CCCCC2)c(C(=O)O)c(C)n1Cc1c(F)cccc1Cl`, the Potency was inconclusive: 13 µM [rising, single point].
With `CCc1ccc(/C=N/n2c(C3CCCCC3)n[nH]c2=S)cc1` the Potency was “inactive”.
In the case of `CCC1(C)Cc2ccccc2-c2[nH]c(=S)[nH]c(=O)c21` (stereo not given), the Potency is reported as “inactive”.
For `CCN(CC)C(=O)CSc1nc2c(sc(=S)n2CC)c(=O)n1-c1ccccc1`, the Potency was inconclusive: 29.1 µM [cytotoxic, single point].
With `CC1CCN(C(=O)CSc2nc(=O)n3ccccc3n2)CC1` the Potency was “inactive”.
In the case of `O=C(Nc1cc(C(F)(F)F)ccc1N1CCCCC1)c1cccc([N+](=O)[O-])c1`, the Potency is reported as active: 16.4 µM.
With `COc1ccc(C2CC(=O)Nc3cc(C)c(C)cc32)c(OC)c1OC` (stereo not given) the Potency was inconclusive: 7.31 µM [cytotoxic, partial curve].
In the case of `Cc1ccc2c(c1)nnn2C1CCN(S(=O)(=O)c2ccc(C(=O)N3CC(C)CC(C)C3)cc2)CC1` (stereo not given), the Potency is reported as inconclusive: 10.3 µM [cytotoxic, partial curve].
For `Nc1nnc(SCC(=O)Nc2ccc(Cl)cc2)s1`, the Potency was inconclusive: 11.6 µM [rising, partial curve, poor fit].
With `COC(=O)C1CCCCN1C(=O)c1ccc2oc(C(C)C)nc2c1` (stereo not given) the Potency was inconclusive: 23.1 µM [cytotoxic, partial curve, poor fit].
For `COCCNC(=O)C(C#N)c1nc2ccccc2nc1N1CCCCCC1` (stereo not given), the Potency was active: 4.11 µM.
For `Cc1cc(C(=O)COc2ccc(-c3nnco3)cc2)c(C)n1Cc1ccccc1`, the Potency was active: 2.91 µM.
In the case of `Cc1ccccc1NC(=S)N(C)Cc1cccs1`, the Potency is reported as inconclusive: 29.1 µM [rising, single point].
For `O=C(CSC1=Nc2ccccc2C2=NC(CCC(=O)NC3CCCCC3)C(=O)N12)Nc1cccc(C(F)(F)F)c1` (stereo not given), the Potency was “inactive”.
With `COc1cccc(S(=O)(=O)Nc2ccc3c(c2)C(=O)N(C)C[C@H](OC)[C@H](C)CN(Cc2ccccc2F)[C@@H](C)CO3)c1` the Potency was active: 14.6 µM.
For `Cc1c(Cl)c([N+](=O)[O-])nn1Cc1ccc(C(=O)N/N=C\c2cc(Cl)ccc2O)o1`, the Potency was inconclusive: 6.51 µM [cytotoxic, partial curve].
For `O=C(N/N=C/C(Cl)=C/c1ccc([N+](=O)[O-])cc1)C(=O)Nc1ccccc1C(=O)O`, the Potency was active: 2.06 µM.
For `CN(CCCN1CCOCC1)Cc1nc(-c2ccccc2)no1`, the Potency was “inactive”.
In the case of `COc1cc(OC)c(NC(=O)N2CCSc3ccccc32)cc1Cl`, the Potency is reported as “inactive”.
In the case of `N#Cc1ccc(COC(=O)c2cc(=O)c3ccccc3o2)cc1`, the Potency is reported as inconclusive: 29.1 µM [rising, single point].
In the case of `CCCCCCCCN1C(=O)[C@H](CC(=O)NCCCOC)C[C@@]2(C(=O)OC)CCCCC=C12`, the Potency is reported as “inactive”.
In the case of `Cc1nc2c(cnn2-c2ccccc2Cl)c(=O)n1-c1ccc(N2CCC(C)CC2)cc1`, the Potency is reported as active: 6.51 µM.
In the case of `O=C(NCc1ccccc1Cl)C1CCN(C(=O)c2ccco2)CC1`, the Potency is reported as “inactive”.
With `O=C(CCC1CCCCC1)NC1CCCCC1` the Potency was “inactive”.
For `CS(=O)(=O)Nc1cccc(-c2cc(NC=O)c3ncc(-c4ccc(F)c(Cl)c4)n3c2)c1`, the Potency was inconclusive: 23.1 µM [cytotoxic, single point].
In the case of `COc1cc(-c2cc3n(C)c(C)c(CCC(=O)O)c(=O)n3n2)cc(OC)c1OC`, the Potency is reported as inconclusive: 23.1 µM [rising, single point].
